This passage reports binding results from US20180362585A1 (Bicycle, published 2018).

Chains of the proteins cited; added tags and fusions are not shown. Residues count along the entry.
UniProt P14272, residues 391-638: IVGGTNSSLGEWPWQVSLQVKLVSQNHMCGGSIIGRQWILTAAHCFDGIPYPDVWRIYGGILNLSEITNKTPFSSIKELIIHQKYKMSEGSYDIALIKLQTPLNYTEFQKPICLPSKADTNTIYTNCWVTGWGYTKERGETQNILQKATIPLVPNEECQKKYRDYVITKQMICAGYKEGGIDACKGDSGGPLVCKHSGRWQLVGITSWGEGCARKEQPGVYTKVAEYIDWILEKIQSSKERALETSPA

These are yes or no findings as the source states them, for the method shown. Some results given as binding are weak or reduced against the parent protein; the word gives no strength.

In this assay the target is T1, rat plasma Kallikrein (rat, UniProt P14272 391-638, limits assumed).
T1 construct: domain: catalytic domain; also called rPK; rat PK
Kind of assay: enzyme inhibition. As to the method:
Functional enzyme assays were conducted in 10 mM Tris HCl, 150 mM NaCl, 10 mM MgCl2, 1 mM CaCl₂) and 1 mg/mL BSA (all Sigma UK) pH7.4 at 25° C. in solid black 96 well plates. […] Release of AMC was measured using a Pherastar FS (BMG Labtech), excitation 360 nm, emission 460 nm. The rate of the linear phase of the reaction, typically 5 to 45 minutes, was calculated in MARS data analysis software (BMG labtech). The rate was then used to calculate the IC50 and Ki in Prism (GraphPad).

As to ACRWPARCMHQDLCA (3 Cys on TMB) [06-34-04], the binding entry is “binds”.

Turning to ACRWPARCTHQDLCA (3 Cys on TMB) [06-34-02], the binding entry is reported as “binds”. Under ACRWPARCLHQDLCA (3 Cys on TMB) [06-34-05] stands “binds”. Under ACSWPARCVHQDLCA (3 Cys on TMB) [06-34-01] stands “binds”.
